Source: doi:10.1101/2020.07.02.184937
No constants are given. Whether binding was seen depends on the method and setting. Binding seen in cells or lysates may run through a third protein. Binding calls can cover weak binding; strength is not graded here.

Amino acid sequences for entries named in this document (tags omitted). A change or cut given only in a name is not applied to a line headed by its entry.
UniProt Q8RY59: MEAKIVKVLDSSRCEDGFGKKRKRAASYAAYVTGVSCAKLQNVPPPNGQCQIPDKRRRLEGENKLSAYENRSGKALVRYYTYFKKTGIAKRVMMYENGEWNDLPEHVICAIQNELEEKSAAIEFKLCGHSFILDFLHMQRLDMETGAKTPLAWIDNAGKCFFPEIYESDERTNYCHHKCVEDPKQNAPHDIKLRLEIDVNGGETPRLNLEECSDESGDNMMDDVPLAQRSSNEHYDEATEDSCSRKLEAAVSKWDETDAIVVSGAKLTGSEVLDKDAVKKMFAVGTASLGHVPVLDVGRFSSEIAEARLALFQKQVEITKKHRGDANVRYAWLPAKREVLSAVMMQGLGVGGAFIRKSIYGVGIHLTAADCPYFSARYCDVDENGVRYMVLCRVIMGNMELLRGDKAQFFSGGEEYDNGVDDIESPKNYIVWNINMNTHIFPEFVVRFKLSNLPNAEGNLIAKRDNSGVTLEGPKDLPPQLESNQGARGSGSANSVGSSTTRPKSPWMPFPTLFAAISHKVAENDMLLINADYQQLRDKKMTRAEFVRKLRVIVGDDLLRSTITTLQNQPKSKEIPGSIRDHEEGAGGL
UniProt Q9SQR8: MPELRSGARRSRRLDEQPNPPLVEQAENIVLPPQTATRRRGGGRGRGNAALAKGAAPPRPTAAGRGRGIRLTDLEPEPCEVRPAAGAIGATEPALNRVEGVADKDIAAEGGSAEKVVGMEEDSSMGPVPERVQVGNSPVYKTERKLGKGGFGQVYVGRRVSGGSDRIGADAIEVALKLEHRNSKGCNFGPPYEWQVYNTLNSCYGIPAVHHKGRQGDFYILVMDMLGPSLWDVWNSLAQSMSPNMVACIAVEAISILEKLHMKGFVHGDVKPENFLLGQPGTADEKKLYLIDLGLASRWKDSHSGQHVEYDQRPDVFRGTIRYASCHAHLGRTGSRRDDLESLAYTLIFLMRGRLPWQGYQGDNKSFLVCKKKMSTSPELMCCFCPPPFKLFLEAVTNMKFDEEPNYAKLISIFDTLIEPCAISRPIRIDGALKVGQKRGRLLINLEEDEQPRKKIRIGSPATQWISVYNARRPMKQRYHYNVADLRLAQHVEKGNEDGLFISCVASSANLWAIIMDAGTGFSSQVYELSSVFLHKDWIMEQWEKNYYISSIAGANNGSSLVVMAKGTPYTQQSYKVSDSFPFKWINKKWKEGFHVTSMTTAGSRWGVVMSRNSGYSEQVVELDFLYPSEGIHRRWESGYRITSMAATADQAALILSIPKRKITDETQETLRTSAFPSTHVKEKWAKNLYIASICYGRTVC

Target: RADICAL-INDUCED CELL DEATH1 (RCD1) fused to GFP (Arabidopsis thaliana) (UniProt Q8RY59)
Test: co-IP

For “Photoregulatory Protein Kinase 3 (PPK3), 3xHA-tagged (from UniProt Q9SQR8) (enzyme)”, the binding was “binds”.
